Experimental data from patent publication US10064926B2, “Peptides and combination of peptides for use in immunotherapy against hepatocellular carcinoma (HCC) and other cancers” (Immatics biotechnologies GmbH, priority 2014, dated 2018).

Legend:
[1] = system: tumor samples of other tumor types; test: Over-presentation of peptides on additional tumor types versus normal tissues (LC-MS); design: species or system human; settings: over-presentation on more than 5% of the measured tumor samples, or presentation on more than 5% with ratio of geometric means tumor vs normal tissues larger than 3
[2] = system: primary HCC tissue samples; test: Identification and label-free LC-MS relative quantitation of HLA-presented peptides (presentation profiles/scores), HCC versus normal tissues; design: species or system human; key to PeptidePresentation (presentation score): very highly over-presented on tumors compared to a panel of normal tissues (+++); highly over-presented on tumors compared to a panel of normal tissues (++); over-presented on tumors compared to a panel of normal tissues (+); settings: HCC tumors compared to a panel of normal tissues

Substance | Additional Entities (additional tumor types on which the peptide was found over-presented) [1] | PeptidePresentation (presentation score) [2] | Other relevant organs/diseases (additional tumor types on which the peptide was found over-presented) [1]
202 (AYGTYRSNF; listed as Homo sapiens) [compound 202] | NSCLC | +++ | 
203 (YYGILQEKI; listed as Homo sapiens) [compound 203] | NSCLC | +++ | Kidney, Brain
206 (KWPETPLLL; listed as Homo sapiens) [compound 206] |  | +++ | Kidney, Brain
208 (SYNPAENAVLL; listed as Homo sapiens) [compound 208] | NSCLC | ++ | Brain
210 (AYPAIRYLL; listed as Homo sapiens) [compound 210] | NSCLC, GC | ++ | 
211 (IYIPSYFDF; listed as Homo sapiens) [compound 211] | NSCLC, Brain Cancer, GC | ++ | 
213 (YYNKVSTVF; listed as Homo sapiens) [compound 213] | NSCLC | + | 
214 (IYVTSIEQI; listed as Homo sapiens) [compound 214] | NSCLC, RCC | +++ | Brain
220 (SLLEKELESV; listed as Homo sapiens) [compound 220] | NSCLC, SCLC, PrC, CLL, BRCA, OC, Esophageal Cancer, Urinary bladder cancer, NHL | ++ | Brain
221 (ALCEENMRGV; listed as Homo sapiens) [compound 221] | NSCLC, SCLC, MCC, Melanoma | + | Kidney, Brain, Colon, Rectum
224 (ALASVIKEL; listed as Homo sapiens) [compound 224] | SCLC, PC, Melanoma | + | Brain
225 (KMDPVAYRV; listed as Homo sapiens) [compound 225] | CRC, PrC, BRCA, Urinary bladder cancer, Uterine Cancer | + | 
226 (AVLGPLGLQEV; listed as Homo sapiens) [compound 226] | PrC, Melanoma, OC | + | 
227 (ALLKVNQEL; listed as Homo sapiens) [compound 227] | Melanoma, Uterine Cancer | + | 
229 (KMFESFIESV; listed as Homo sapiens) [compound 229] | NSCLC, SCLC, PrC, OC, Urinary bladder cancer | ++ | Kidney, Brain, Colon, Rectum
230 (VLTEFTREV; listed as Homo sapiens) [compound 230] | NSCLC, SCLC, CLL, BRCA, Melanoma, OC, Esophageal Cancer, Urinary bladder cancer, Uterine Cancer, Gallbladder Cancer, Bile Duct Cancer, NHL | + | Kidney, Brain, Colon, Rectum
231 (RLFNDPVAMV; listed as Homo sapiens) [compound 231] | NSCLC, SCLC, MCC, Melanoma, OC, Urinary bladder cancer, Gallbladder Cancer, Bile Duct Cancer | ++ | Brain, Colon, Rectum
234 (YLEPYLKEV; listed as Homo sapiens) [compound 234] | NSCLC, SCLC, BRCA, Melanoma, OC, Esophageal Cancer, Urinary bladder cancer, Uterine Cancer, Gallbladder Cancer, Bile Duct Cancer, AML, NHL, PC | + | Kidney, Brain, Colon, Rectum
236 (ALADKELLPSV; listed as Homo sapiens) [compound 236] | NSCLC, SCLC, GC, Melanoma, OC, Esophageal Cancer, Urinary bladder cancer, Gallbladder Cancer, Bile Duct Cancer, NHL | ++ | Kidney, Colon, Rectum, Pancreas
237 (ALRGEIETV; listed as Homo sapiens) [compound 237] | SCLC, BRCA, OC, Esophageal Cancer, Urinary bladder cancer, NHL | +++ | Colon, Rectum
238 (AMPPPPPQGV; listed as Homo sapiens) [compound 238] | NSCLC, SCLC, BRCA, MCC, Melanoma, OC, Esophageal Cancer, Urinary bladder cancer, Gallbladder Cancer, Bile Duct Cancer, NHL | ++ | Brain, Colon, Rectum
239 (FLLGFIPAKA; listed as Homo sapiens) [compound 239] | Urinary bladder cancer, AML, NHL | + | Brain
240 (FLWERPTLLV; listed as Homo sapiens) [compound 240] |  | +++ | CLL
242 (GLFAPVHKV; listed as Homo sapiens) [compound 242] | Urinary bladder cancer | + | 
243 (GLLDNPELRV; listed as Homo sapiens) [compound 243] | Urinary bladder cancer | +++ | 
244 (KIAELLENV; listed as Homo sapiens) [compound 244] | NSCLC, SCLC, PrC, CLL, BRCA, Melanoma, OC, Uterine Cancer, AML, NHL | + | Brain, Colon, Rectum
245 (KLGAVFNQV; listed as Homo sapiens) [compound 245] | NSCLC, SCLC, RCC, PrC, BRCA, Melanoma, Esophageal Cancer, Urinary bladder cancer, Uterine Cancer | + | Brain
